Taken from: PubChem BioAssay AID686943 (Drosophila RNAi Screening Center, 2013)

- Assay: 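Fly genes whose loss alters ERK activation after insulin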 (primary screen)
- Cells: Drosophila S2R+ haemocyte-like cells expressing YFP-tagged ERK (Rolled)
- Knock-down reagent: long dsRNA against Drosophila genes
- Conditions: insulin stimulation versus unstimulated cells; dose and duration not given
- Measurement: 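Antibody staining for doubly phosphorylated ERK divided by ERK-YFP signal, as plate z-scores, in insulin-treated and untreated cells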
- Direction: replicate 1, z-score of dpERK with insulin: higher = more active ERK per ERK-YFP after insulin
The screen tested about 23,000 reagents; this is a random part of those with a known target gene and a result. 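Extra replicates exist only for a retested subset of genes; insulin dose and duration not given; both raised and lowered dpERK matter.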 A plus sign joins genes that one reagent is predicted to hit. Not all columns of the deposit are shown. Not stated in the record: the amount of reagent, the time to read-out.

With CG6770 [DRSC02992], what does the deposit list?
replicate 1, z-score of dpERK with insulin: -5.6

What is on record for CG9300 [DRSC11064]?
replicate 1, z-score of dpERK with insulin: -0.5

How did the screen score Mzt1 (Mitotic spindle organizing protein 1) [DRSC07979]?
replicate 1, z-score of dpERK with insulin: -0.37

For CG4582 [DRSC15605], what does the deposit list?
replicate 1, z-score of dpERK with insulin: 0.05

For CG14043 [DRSC02368], what does the deposit list?
replicate 1, z-score of dpERK with insulin: -0.78

With dbe (dribble) [DRSC00811], how do the results read?
replicate 1, z-score of dpERK with insulin: 0.43

With CG18294 [DRSC09891], what does the deposit list?
replicate 1, z-score of dpERK with insulin: 0.31

What is on record for e(y)2b (enhancer of yellow 2b) [DRSC12556]?
replicate 1, z-score of dpERK with insulin: 1.25

What is on record for Gr64a (Gustatory receptor 64a) [DRSC21713]?
replicate 1, z-score of dpERK with insulin: 0.37

What did the screen give for tipE (temperature-induced paralytic E) [DRSC08738]?
replicate 1, z-score of dpERK with insulin: -0.52

How did the screen score CG14743 [DRSC06479]?
replicate 1, z-score of dpERK with insulin: -0.48

2 of these entries, set out differently:
| predicted target | dsRNA | replicate 1, z-score of dpERK with insulin |
| --- | --- | --- |
| CG18294 | DRSC09891 | 0.31 |
| e(y)2b (enhancer of yellow 2b) | DRSC12556 | 1.25 |

The results go on:
Which result is listed for CG31142 [DRSC13647]?
replicate 1, z-score of dpERK with insulin: 0.91

Which result is listed for trpl (transient receptor potential-like) [DRSC06728]?
replicate 1, z-score of dpERK with insulin: 0.59

With trpl (transient receptor potential-like) [DRSC06729], what was measured?
replicate 1, z-score of dpERK with insulin: -0.78

With Chpf (Chondroitin polymerizing factor) [DRSC19491], what does the deposit list?
replicate 1, z-score of dpERK with insulin: 0.04

Which result is listed for Chpf (Chondroitin polymerizing factor) [DRSC19893]?
replicate 1, z-score of dpERK with insulin: 0.6

With CG43666 + CG43667 + CG43668 [DRSC03829], what does the deposit list?
replicate 1, z-score of dpERK with insulin: -0.41

What is on record for CG43666 + CG43667 + CG43668 [DRSC04233]?
replicate 1, z-score of dpERK with insulin: -0.7

What is on record for CG32376 [DRSC22754]?
replicate 1, z-score of dpERK with insulin: 0.69

Which result is listed for asRNA:CR43433 + Rbp6 [DRSC09464]?
replicate 1, z-score of dpERK with insulin: 0.3

For CG6425 [DRSC16038], what was measured?
replicate 1, z-score of dpERK with insulin: -0.37
